# Primary screen of a compound library

The chains behind the UniProt entries cited, without tags or fusion partners. Residues count along the entry.
UniProt I6X8D2, whole entry: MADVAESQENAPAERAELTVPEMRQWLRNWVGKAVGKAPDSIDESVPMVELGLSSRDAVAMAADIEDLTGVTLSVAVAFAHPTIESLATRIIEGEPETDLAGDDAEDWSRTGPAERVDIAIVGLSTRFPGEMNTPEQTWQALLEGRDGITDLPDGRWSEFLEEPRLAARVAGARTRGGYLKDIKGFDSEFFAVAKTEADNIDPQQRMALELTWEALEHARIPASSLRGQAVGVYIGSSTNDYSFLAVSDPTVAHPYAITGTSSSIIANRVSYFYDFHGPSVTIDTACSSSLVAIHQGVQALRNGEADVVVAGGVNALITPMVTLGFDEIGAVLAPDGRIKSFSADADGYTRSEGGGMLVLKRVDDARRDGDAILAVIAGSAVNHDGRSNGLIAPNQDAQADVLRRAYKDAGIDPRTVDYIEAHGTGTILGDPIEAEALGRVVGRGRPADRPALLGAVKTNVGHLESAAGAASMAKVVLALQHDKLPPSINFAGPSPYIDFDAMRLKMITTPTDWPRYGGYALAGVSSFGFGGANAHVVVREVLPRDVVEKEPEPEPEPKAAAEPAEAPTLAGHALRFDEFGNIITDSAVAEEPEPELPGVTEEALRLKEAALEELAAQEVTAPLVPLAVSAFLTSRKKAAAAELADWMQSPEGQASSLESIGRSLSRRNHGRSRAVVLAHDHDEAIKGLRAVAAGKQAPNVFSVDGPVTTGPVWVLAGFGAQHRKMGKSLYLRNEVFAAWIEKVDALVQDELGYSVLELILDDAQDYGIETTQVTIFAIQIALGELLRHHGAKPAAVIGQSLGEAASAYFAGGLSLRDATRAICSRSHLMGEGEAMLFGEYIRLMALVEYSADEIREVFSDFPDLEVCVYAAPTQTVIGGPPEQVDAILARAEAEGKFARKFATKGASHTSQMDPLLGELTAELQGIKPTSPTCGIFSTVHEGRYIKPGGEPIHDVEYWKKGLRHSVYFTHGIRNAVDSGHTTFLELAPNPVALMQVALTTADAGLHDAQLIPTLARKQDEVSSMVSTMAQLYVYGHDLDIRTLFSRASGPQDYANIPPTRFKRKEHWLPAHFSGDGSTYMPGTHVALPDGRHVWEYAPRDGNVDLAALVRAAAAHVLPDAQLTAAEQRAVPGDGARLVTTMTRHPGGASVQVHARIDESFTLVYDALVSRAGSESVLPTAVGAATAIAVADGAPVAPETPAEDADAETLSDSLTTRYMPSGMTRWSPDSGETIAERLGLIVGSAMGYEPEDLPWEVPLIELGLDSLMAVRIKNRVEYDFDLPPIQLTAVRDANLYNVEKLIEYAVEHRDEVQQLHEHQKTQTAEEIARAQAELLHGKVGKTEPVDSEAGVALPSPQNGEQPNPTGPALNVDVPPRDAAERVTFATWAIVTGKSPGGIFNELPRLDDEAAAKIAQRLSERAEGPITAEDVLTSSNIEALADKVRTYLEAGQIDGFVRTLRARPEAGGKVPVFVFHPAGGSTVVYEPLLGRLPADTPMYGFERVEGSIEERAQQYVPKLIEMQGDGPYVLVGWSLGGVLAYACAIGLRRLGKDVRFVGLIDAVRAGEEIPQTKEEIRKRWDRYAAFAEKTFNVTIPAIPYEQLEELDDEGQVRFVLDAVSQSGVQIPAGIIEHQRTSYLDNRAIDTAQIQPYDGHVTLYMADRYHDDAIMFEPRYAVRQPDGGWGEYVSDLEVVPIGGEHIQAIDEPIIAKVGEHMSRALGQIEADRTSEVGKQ
UniProt Q8IDJ8, 1-583: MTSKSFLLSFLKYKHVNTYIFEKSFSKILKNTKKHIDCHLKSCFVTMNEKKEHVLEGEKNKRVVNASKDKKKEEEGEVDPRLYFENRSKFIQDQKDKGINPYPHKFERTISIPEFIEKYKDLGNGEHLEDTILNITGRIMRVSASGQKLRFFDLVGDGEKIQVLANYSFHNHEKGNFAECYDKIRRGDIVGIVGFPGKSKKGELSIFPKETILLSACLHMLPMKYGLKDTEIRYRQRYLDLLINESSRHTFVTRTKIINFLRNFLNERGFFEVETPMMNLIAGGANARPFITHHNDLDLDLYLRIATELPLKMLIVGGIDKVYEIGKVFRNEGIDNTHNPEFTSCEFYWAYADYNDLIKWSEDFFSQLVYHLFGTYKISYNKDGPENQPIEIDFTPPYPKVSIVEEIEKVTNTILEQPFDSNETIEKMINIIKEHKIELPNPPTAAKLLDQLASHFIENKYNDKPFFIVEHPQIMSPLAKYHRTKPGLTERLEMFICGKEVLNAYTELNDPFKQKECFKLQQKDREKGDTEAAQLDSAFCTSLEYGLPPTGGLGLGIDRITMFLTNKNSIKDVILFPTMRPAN
UniProt P9WNZ1, whole entry: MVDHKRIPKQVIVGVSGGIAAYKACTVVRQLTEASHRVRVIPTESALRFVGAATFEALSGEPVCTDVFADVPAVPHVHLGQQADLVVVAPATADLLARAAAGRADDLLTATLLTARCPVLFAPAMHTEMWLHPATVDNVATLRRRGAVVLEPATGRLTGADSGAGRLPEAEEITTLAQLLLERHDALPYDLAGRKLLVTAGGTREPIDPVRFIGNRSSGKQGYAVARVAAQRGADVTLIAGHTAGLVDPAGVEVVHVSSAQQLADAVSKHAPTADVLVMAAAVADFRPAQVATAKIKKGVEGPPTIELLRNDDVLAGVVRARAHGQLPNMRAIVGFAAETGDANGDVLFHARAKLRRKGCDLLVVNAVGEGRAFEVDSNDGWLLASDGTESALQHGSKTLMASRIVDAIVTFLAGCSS

The values are deposited in ChEMBL (CHEMBL3988442, “University of Dundee, Small-Polar-MMV Screening Library” (2021)).

The filed quantity is “Percent Effect” (%). The record does not define 0% and 100%; most values in the screen are far below 50% and negative numbers occur (in some assays of this library far below -100). Compounds were drawn at random from those tested, without regard to their results. A dash means the value is not listed here; it may have been measured.

A: 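Assay of Toxoplasma gondii numbers, read through their beta-galactosidase reporter with a colour substrate. Compounds at 10 µM. The record gives no direction; the compounds picked for IC50 retests had high values, so higher reads as fewer parasites. Size under these conditions: about 67,000 compounds, about 260 of them at 50% or above in at least one test.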
B: 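Polyketide synthase Pks13, Mycobacterium tuberculosis (UniProt I6X8D2). Enzyme assay of the thioesterase domain of polyketide synthase 13; the read-out is not stated. Tested at 30 µM. The record gives no direction; the compounds picked for IC50 retests had high values, so higher reads as stronger inhibition. Size under these conditions: about 67,000 compounds, about 300 of them at 50% or above in at least one test.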
C: 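Enzyme assay of the cytosolic lysyl-tRNA synthetase in 384-well plates, read by luminescence. Target: Lysine-tRNA ligase, Plasmodium falciparum 3D7 (UniProt Q8IDJ8). Compounds at 30 µM. Higher reads as stronger inhibition, judged from the few compounds that gave an IC50. Of about 69,000 compounds tested this way, about 49 (0.071%) reached 50% or more in at least one test.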
D: 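Enzyme assay of CoaBC with a phosphate dye (Biomol Green) read at 650 nm. Target: Coenzyme A biosynthesis protein CoaBC, Mycobacterium tuberculosis (UniProt P9WNZ1). Tested at 30 µM. Direction is inferred from only a few compounds that gave an IC50; most scored high, so higher reads as stronger inhibition. Most strong results did not repeat in a second test. About 67,000 compounds were tested under these conditions; 0.06% (about 40) showed 50% or more at least once.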

compound	A	B	C	D
CCC1CCCCN1C(=O)CCn1cnc2sccc2c1=O (centres undefined)	-3.558	-13.79	4.561	2.644
CC(=O)N1CCc2c(nc(N(C)C)nc2NCCCn2ccnc2C)C1	13.17	-1.022	7.855	-0.8168
Fc1ccc(-c2cnc(C3CCCN3)cn2)cc1 (centres undefined)	-	-10.34	0.498	-3.154
O=C1C(CS(=O)(=O)Nc2ccccc2)=NC(=O)n2cccc21	4.884	-41.59	3.685	-3.283
COCCOc1ccc(NC(=O)C2CCC2)cn1	-	-27.53	1.363	1.799
Cn1ccnc1CN1CCN(CC(O)c2cccc(F)c2)CC1 (centres undefined)	-3.721	-21.96	2.553	-6.41
CCNc1ncc(C(=O)NC(CCN(C)C)c2ccccc2)cn1 (centres undefined)	-10.14	9.452	-2.591	-
CN1CCC(NC(=O)Nc2cnn(-c3ccccc3Cl)c2)CC1	10.35	-9.198	5.481	-2.89
O=C(CN1CCC(c2ccnn2CCO)CC1)NCc1ccco1	17.15	-13.01	-2.236	-3.15
Cc1ncsc1C(=O)NCCNC(=O)OC(C)(C)C	14.58	-27.58	7.15	3.972
O=C1NC[C@H]2CN(Cc3ccnc4ccccc34)CCN12	-	-17.69	7.409	1.613
CN(C)C(=O)N1CCN(C(=O)c2ccccc2)CC2(CNC(=O)C2)C1 (centres undefined)	6.915	-26.38	3.65	0.611
COc1ccc(Cl)cc1-c1cc(NC(=O)C2COCCO2)[nH]n1 (centres undefined)	-7.027	-12.25	6.45	1.282
CCc1noc(CNc2ccc(CC(=O)N3CCSCC3)cc2)n1	-15.5	-12.29	4.12	-2.355
CCC1COCCN1C(=O)NCc1cccc(-c2cnn(C)c2)c1 (centres undefined)	-	4.282	6.1	-5.043
CCc1ccc(CN2CCNC(C(=O)N3CCN(C)CC3)C2)o1 (centres undefined)	2.871	-12.68	2.597	10.86
Cc1cc(CNC(=O)NC(C)(CO)C2CC2)c(C)s1 (centres undefined)	-3.564	-7.696	2.298	-11.78
Cc1ccc([C@]2(O)CC[C@H]3CN(Cc4ccc(Cl)cc4Cl)C[C@H]32)nc1	-	-16.1	2.791	-2.906
COc1ccc(CC(=O)N2C[C@H]3CN(Cc4ccccn4)C[C@H]3C2)cc1	-	-52.61	-0.8968	1.673
O=C1CCC2(CCCN(c3ncc(F)cn3)CC2)N1Cc1ccccc1 (centres undefined)	0.6772	6.233	2.38	-6.105
COc1cccc(-c2nc(CNC(C)Cn3cccn3)cs2)c1 (centres undefined)	-0.8979	-1.852	-3.56	14.53
CNCC(=O)N1CCC(c2cccc(Oc3ccccc3)n2)CC1	8.14	10.86	2.365	11.19
Cc1ccc(C(=O)Nc2cc(C(C)C)n[nH]2)cn1	-1.588	-8.233	4	1.928
CC[C@H]1CN(C(=O)C(C)(C)C)CC[C@H]1CC(=O)O	-6.1	-18.43	5.051	-2.032
O=C(O)C(F)(F)F.[H][C@]12CO[C@@H](CNC(=O)N(C)C)[C@@]1([H])CCN(Cc1ccc(OC)cc1)C2	15.15	-	-	-
[H][C@@]12CCN(S(=O)(=O)c3ccccc3)C[C@]1(C(=O)NC)CCO2	-6.173	-	-	-
c1ccc(-c2cnc(CNC3CCCN(c4cccnn4)C3)o2)cc1 (centres undefined)	-14.66	-3.339	4.15	-1.554
COc1ccc(CN2CCO[C@H]3CN(C(C)=O)CC[C@H]3C2=O)cc1	-	-27.88	1.451	5.072
CCOCc1nn(C)c2c1CN(Cc1cccs1)CC2	-	-18.04	3.97	-0.7426
Cc1ccn(CCC(=O)NCCc2ccco2)n1	-2.148	-4.254	4.845	-6.456
[H][C@@]12CCN(C[C@@H]1CN1CCOCC1)[C@@H](CNC(=O)Nc1ccccc1)C2	-6.667	-	-	-
O=C(CSc1nnc(N2CCOCC2)s1)NCc1cccs1	19.25	-8.929	1.029	0
Cc1ccc(C(=O)N2C[C@@H]3OCCN(CC4CCCC4)[C@@H]3C2)cn1	-	-10.99	3.896	2.25
CC(Nc1cnn(C)c(=O)c1Cl)c1ccc(F)c(F)c1 (centres undefined)	-23.05	78.51	7.27	3.418
CC(C)(C)OC(=O)NCCNC(=O)c1ccc2cc[nH]c2c1	18.21	-10.09	6.335	-5.374
CNC(=O)CNCc1c[nH]nc1-c1cc2ccccc2o1	-	-28.72	7.471	-10.05
CS(=O)(=O)N1CCC[C@]2(C[C@@H](Oc3ncccc3F)CO2)C1	-	-11.38	1.947	-2.445
CC1(C)CC(N(Cc2cccnc2)Cc2cccc(F)c2)CC(C)(C)N1	-	-3.272	2.06	1.456
O=C(NCCc1nccs1)C1CCCN(Cc2ccco2)C1 (centres undefined)	7.446	-34.42	5.138	0.5141
CCC(=O)c1ccc(OCC(=O)NC(C)Cc2cc(C)n[nH]2)cc1 (centres undefined)	2.16	-2.056	-0.04646	-1.341
C[C@@H]1CN(c2nc3c(cc2C(N)=O)CCC3)CC[C@@]1(O)C1CCC1	4.18	2.037	4.276	-1.79
Cc1ccc(C(=O)N2CCC3(CC2)COC(COc2ccccn2)C3)o1.O=C(O)C(F)(F)F (centres undefined)	2.13	-	-	-
COCC(C)NC(=O)c1nnn(-c2ccc(Br)cc2)n1 (centres undefined)	0	23.4	-0.8933	-8.403
Cc1sc(-c2ccco2)nc1C(=O)N(CC1CCOC1)C1CC1 (centres undefined)	6.582	7.603	6.167	16.36
Cn1cccc1C(=O)N1C[C@H](OCC2CCOCC2)[C@H]2COC[C@H]21	-	-2.3	3.494	-10.1
CN(C)C1CCC2(CCN(Cc3nccn3C)CC2)c2ccccc21.O=C(O)C(F)(F)F.O=C(O)C(F)(F)F (centres undefined)	10.24	-	-	-
C1CN(CCN2CCOCC2)CCN1	4.326	8.859	2.494	-1.35
Cc1cnn(CCC(=O)N2CCCN(c3ncccc3C#N)CC2)c1	-2.643	29.31	3.726	6.789
O=C(c1ccc[nH]1)N1CCCC(c2cc(C(F)(F)F)[nH]n2)C1 (centres undefined)	-8.223	-1.012	6.128	6.177
Cc1ccc(C(F)(F)F)cc1NCC(=O)Nc1c(C)nn(C)c1C	1.323	-16.83	7.09	-2.696
CCOc1ncccc1-c1cc2c(cc1C(N)=O)OCO2	6.302	16.29	7.852	1.935
O=C(CC1CC1)N1CCc2ncc(Cn3cncn3)n2CC1	-	-13.4	1.232	4.75
Cc1occc1C(=O)N1CCC2(CCCN(c3ncc(F)cn3)C2)C1 (centres undefined)	-	1.158	3.31	1.235

The last 4 entries again:

| compound | A | B | C | D |
|---|---|---|---|---|
| `Cc1ccc(C(F)(F)F)cc1NCC(=O)Nc1c(C)nn(C)c1C` | 1.323 | -16.83 | 7.09 | -2.696 |
| `CCOc1ncccc1-c1cc2c(cc1C(N)=O)OCO2` | 6.302 | 16.29 | 7.852 | 1.935 |
| `O=C(CC1CC1)N1CCc2ncc(Cn3cncn3)n2CC1` | - | -13.4 | 1.232 | 4.75 |
| `Cc1occc1C(=O)N1CCC2(CCCN(c3ncc(F)cn3)C2)C1` (centres undefined) | - | 1.158 | 3.31 | 1.235 |